Substitutions are numbered along the chain they refer to. Names and notes keep the numbering of the source. Results are given in words; binding and its absence hold for the method and conditions named. Some binding calls cover weakened binding; strength is not graded here. Sequences can lack the tags named with a protein. Each block holds one binder with its values, some of them ahead of it.
Target: T1, FBF-2 (a.a. 121-632) fused to the LexA binding domain (plasmid pJK2017) (C. elegans) (UniProt Q09312)
T1 sequence: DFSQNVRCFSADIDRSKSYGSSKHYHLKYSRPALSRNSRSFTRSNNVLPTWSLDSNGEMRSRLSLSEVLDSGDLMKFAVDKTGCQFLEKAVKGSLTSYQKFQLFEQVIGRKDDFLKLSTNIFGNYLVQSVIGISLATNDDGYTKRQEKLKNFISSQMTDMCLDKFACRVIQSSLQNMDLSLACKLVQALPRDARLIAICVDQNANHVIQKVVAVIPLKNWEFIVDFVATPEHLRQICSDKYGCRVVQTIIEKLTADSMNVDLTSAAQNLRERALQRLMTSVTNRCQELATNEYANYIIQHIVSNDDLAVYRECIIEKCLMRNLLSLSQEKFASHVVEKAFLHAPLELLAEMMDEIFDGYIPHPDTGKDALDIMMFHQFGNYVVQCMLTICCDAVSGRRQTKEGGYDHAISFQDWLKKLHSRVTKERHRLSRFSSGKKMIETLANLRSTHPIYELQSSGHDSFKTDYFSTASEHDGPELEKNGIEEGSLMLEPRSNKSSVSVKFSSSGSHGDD
Assay: two-hybrid

binding: binds
B1: LST-1(1-152) fused to the Gal4 activation domain (domain or fragment, UniProt P91820 1-152)
chain: MCSTFILPPRRNNCNKSSSTIAYSKSQHEAPKQLLQLRSEIKPLIPLNQPSNFWESSQDSGVLSSLSSSPQQRSGLRSQKLHLTYIEKNKRVRAMIPQQQHYHAFDRPTHYNSRKTSGPPPLMRTPSSGFSSASSSENMFSGLTLSDNENKI

binding: no binding
B2: LST-1(1-152) with the A and B motifs mutated in the same fragment, Gal4 activation domain fusion (domain or fragment, UniProt P91820 1-152)
chain: B1 chain with K32A, L35A, K80A, L83A

binding: binds
B3: LST-1(1-152) with the B motif mutated (K80A L83A), Gal4 activation domain fusion (domain or fragment, UniProt P91820 1-152)
chain: B1 chain with K80A, L83A

binding: binds
B4: full length LST-1(wt) fused to the Gal4 activation domain (protein, UniProt P91820 1-328)
chain: MCSTFILPPRRNNCNKSSSTIAYSKSQHEAPKQLLQLRSEIKPLIPLNQPSNFWESSQDSGVLSSLSSSPQQRSGLRSQKLHLTYIEKNKRVRAMIPQQQHYHAFDRPTHYNSRKTSGPPPLMRTPSSGFSSASSSENMFSGLTLSDNENKIHEIMDPSVDVDLDMFLLPDCRYKQPVQPSTSTSRNNVSQISGSSRLNGSTRHVAPIVPKVAMPSELSYANVKRSSGYVDYMPTTYNSNVTSNSSAASVPMSPGTWVRCHYCWESYVKLCQRVANLEPLISCDGPWNWHTLYDMQGRVTCPRLWFAQLDRAGSEMVEQMGHARNVPV
